Record: PubChem BioAssay AID493246 (Drosophila RNAi Screening Center, 2011)
The deposit covers about 21,000 reagents; below is a random part of those that have a named target and a result. Of all reagents, 429 (2%) got an active call. 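Values are raw and not normalised between plates; calls rest on per-plate z-scores that were not deposited.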 Names joined by + are all predicted targets of the reagent. Not given: the amount of reagent, the time to read-out.

Purpose: 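Identify essential fly genes by loss of cell viability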 (primary screen)
Cell system: Drosophila Kc and S2R+ cells
Knock-down reagent: long dsRNA against Drosophila genes
Read-out: 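Raw, unnormalised count of remaining cells in each well; per-plate z-scores of cell number underlie the calls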
Reading the numbers: Kc cell number and S2R+ cell number: higher = more cells remaining
Rule for the call: 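Counted as a hit if cell number falls by a z-score of at least 3 within its plate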

no.	gene knocked down	PubChem SID	Kc cell number, rep 1	Kc cell number, rep 2	S2R+ cell number, rep 1	S2R+ cell number, rep 2	activity call
1	Slob	SID104182088	1.62e6	1.64e6	1.20e6	1.32e6	inactive
2	CG3036	SID104180052	1.57e6	1.63e6	1.18e6	1.27e6	inactive
3	CG3036	SID104180354	1.21e6	1.36e6	5.25e5	6.16e5	inactive
4	CG2691	SID104199658	6.15e5		9.06e5		inactive
5	dpr11	SID104192353	1.44e6	1.54e6	1.16e6	1.28e6	inactive
6	dpr11	SID104192354	1.52e6	1.59e6	1.27e6	1.39e6	inactive
7	dpr11	SID104192355	1.37e6	1.55e6	1.22e6	1.33e6	inactive
8	CG3868	SID104190172	1.39e6	1.47e6	1.32e6	1.20e6	inactive
9	Adh + Adhr	SID104181654	1.22e6	1.33e6	1.35e6	1.31e6	inactive
10	Adh + Adhr	SID104181655	1.63e6	1.62e6	1.39e6	1.57e6	inactive
11	alpha-Est1	SID104192404	1.64e6	1.68e6	1.25e6	1.27e6	inactive
12	GMF	SID104181720	1.50e6	1.58e6	1.47e6	1.38e6	inactive
13	Tango2	SID104199186	6.32e5		8.91e5		inactive
14	CG15020	SID104188266	1.67e6	1.64e6	1.11e6	1.19e6	inactive
15	Npc2b	SID104195256	1.33e6	1.39e6	1.18e6	1.30e6	inactive
16	TwdlZ	SID104198946	1.33e6	1.53e6	1.14e6	1.17e6	inactive
17	CG15056	SID104199422	1.56e6	1.61e6	1.12e6	1.23e6	inactive
18	CG10252	SID104194013	1.55e6	1.56e6	1.21e6	1.33e6	inactive
19	Mvd	SID104199888	5.85e5		9.43e5		inactive
20	CTCF	SID104190796	1.28e6	1.33e6	1.28e6	1.22e6	inactive
21	Drsl4	SID104187826	1.44e6	1.45e6	9.78e5	1.17e6	inactive
22	CG16775	SID104190017	1.43e6	1.77e6	1.49e6	1.55e6	inactive
23	CG16758	SID104187776	1.58e6	1.53e6	1.02e6	1.16e6	inactive
24	CG16758	SID104188284	1.44e6	1.58e6	1.34e6	1.36e6	inactive
25	Ccp84Ac	SID104192380	1.36e6	1.55e6	1.23e6	1.28e6	inactive
26	CG9083	SID104184417	1.42e6	1.44e6	1.06e6	1.11e6	inactive
27	CG33286	SID104191483	1.39e6	1.43e6	1.30e6	1.41e6	inactive
28	CG17985	SID104186494	1.64e6	1.69e6	1.36e6	1.52e6	inactive
29	bsf	SID104181827	1.23e6	1.30e6	1.27e6	1.21e6	inactive
30	Ssadh	SID104195413	5.16e5		7.61e5		inactive
31	CG6171	SID104195774	1.57e6	1.66e6	1.25e6	1.35e6	inactive
32	Sap130	SID104189472	1.51e6	1.50e6	1.08e6	1.20e6	inactive
33	mew	SID104198763	1.57e6	1.89e6	1.14e6	1.24e6	inactive
34	mew	SID104200144	1.51e6	1.46e6	1.05e6	1.11e6	inactive
35	CG14115	SID104189910	1.16e6	1.15e6	1.26e6	1.34e6	inactive
36	CG13186	SID104186103	1.56e6	1.61e6	1.18e6	1.31e6	inactive
37	ttm50	SID104198379	5.50e5		7.98e5		inactive
38	Frmd5	SID104182594	1.63e6	1.64e6	1.17e6	1.29e6	inactive
39	Fntb	SID104195036	1.43e6	1.55e6	1.14e6	1.20e6	inactive
40	CG12951	SID104194371	1.72e6	1.64e6	1.26e6	1.36e6	inactive

5 neighbouring records already listed, quoted:
no.	gene knocked down	PubChem SID	Kc cell number, rep 1	Kc cell number, rep 2	S2R+ cell number, rep 1	S2R+ cell number, rep 2	activity call
13	Tango2	SID104199186	6.32e5		8.91e5		inactive
14	CG15020	SID104188266	1.67e6	1.64e6	1.11e6	1.19e6	inactive
15	Npc2b	SID104195256	1.33e6	1.39e6	1.18e6	1.30e6	inactive
16	TwdlZ	SID104198946	1.33e6	1.53e6	1.14e6	1.17e6	inactive
17	CG15056	SID104199422	1.56e6	1.61e6	1.12e6	1.23e6	inactive
